These are yes or no findings as the source states them, for the method shown. Binding seen in cells or lysates may run through a third protein. Some binding calls cover weakened binding; strength is not graded here.
Target: chemokine receptor CXCR4 (rat (endogenous in bladder)) (UniProt O08565)
Assay: co-IP; CXCR4 precipitated from frozen bladder tissue homogenates (200 ug total protein) of saline- or cyclophosphamide-treated rats with CXCR4 antibody (5 ug, Sigma C3116) and Protein G agarose beads; denaturing, reducing SDS electrophoresis; MIF Western blot with biotinylated anti-MIF antibody

Chains of the proteins cited; added tags and fusions are not shown.
UniProt O08565: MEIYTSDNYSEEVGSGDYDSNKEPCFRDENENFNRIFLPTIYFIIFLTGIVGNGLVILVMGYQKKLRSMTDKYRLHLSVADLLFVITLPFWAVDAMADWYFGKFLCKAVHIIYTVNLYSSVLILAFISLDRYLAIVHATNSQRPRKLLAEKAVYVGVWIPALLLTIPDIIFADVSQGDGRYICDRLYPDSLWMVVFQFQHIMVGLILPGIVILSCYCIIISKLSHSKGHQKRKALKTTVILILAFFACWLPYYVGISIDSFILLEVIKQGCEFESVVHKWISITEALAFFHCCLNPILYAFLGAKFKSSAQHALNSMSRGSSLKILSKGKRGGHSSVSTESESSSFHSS
UniProt P30904: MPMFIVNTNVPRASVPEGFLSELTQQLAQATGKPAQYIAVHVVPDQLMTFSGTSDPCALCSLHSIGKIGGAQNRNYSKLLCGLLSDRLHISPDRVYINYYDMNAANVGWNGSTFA

In the case of “Macrophage migration inhibitory factor (from UniProt P30904 1-115)”, the binding is reported as “binds”.

Reference: article PMC2588654
